This is an account of results in article doi:10.1101/2020.06.04.133710.

Protein sequences, listed by entry. Tags and fused reporters are not part of them.
UniProt Q13257: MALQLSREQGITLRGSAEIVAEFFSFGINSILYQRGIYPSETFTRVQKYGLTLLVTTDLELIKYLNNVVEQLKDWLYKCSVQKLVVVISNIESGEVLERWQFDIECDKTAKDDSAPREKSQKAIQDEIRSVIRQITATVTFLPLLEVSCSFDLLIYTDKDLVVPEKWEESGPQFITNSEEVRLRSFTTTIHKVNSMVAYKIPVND
UniProt O43683: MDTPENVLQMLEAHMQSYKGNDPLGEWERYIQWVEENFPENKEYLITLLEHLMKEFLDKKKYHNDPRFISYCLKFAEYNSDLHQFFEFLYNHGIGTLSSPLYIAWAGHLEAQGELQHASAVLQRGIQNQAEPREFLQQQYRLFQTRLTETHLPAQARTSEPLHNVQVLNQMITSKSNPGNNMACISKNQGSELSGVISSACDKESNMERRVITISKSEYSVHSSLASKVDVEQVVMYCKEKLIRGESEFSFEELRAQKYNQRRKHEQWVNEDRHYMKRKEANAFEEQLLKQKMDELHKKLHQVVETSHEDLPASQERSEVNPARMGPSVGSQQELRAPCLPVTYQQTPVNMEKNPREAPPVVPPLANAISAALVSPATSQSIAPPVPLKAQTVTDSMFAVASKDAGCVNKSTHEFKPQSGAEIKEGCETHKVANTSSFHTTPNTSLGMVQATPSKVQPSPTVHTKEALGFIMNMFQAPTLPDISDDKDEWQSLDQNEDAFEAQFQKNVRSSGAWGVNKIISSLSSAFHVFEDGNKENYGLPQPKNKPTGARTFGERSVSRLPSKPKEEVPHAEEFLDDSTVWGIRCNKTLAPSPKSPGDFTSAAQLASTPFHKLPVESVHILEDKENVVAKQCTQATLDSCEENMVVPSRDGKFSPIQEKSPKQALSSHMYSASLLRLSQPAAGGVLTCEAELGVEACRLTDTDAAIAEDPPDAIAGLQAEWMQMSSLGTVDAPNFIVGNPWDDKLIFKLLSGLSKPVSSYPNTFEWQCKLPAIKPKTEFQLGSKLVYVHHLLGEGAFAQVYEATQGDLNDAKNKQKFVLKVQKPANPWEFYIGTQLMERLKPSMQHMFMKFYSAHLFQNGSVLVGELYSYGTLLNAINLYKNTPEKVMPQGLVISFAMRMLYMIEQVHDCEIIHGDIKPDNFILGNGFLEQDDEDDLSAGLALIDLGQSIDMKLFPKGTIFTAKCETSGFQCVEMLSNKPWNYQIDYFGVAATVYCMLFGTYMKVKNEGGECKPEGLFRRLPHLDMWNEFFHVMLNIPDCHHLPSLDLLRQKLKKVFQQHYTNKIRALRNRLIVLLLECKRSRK
UniProt O43684: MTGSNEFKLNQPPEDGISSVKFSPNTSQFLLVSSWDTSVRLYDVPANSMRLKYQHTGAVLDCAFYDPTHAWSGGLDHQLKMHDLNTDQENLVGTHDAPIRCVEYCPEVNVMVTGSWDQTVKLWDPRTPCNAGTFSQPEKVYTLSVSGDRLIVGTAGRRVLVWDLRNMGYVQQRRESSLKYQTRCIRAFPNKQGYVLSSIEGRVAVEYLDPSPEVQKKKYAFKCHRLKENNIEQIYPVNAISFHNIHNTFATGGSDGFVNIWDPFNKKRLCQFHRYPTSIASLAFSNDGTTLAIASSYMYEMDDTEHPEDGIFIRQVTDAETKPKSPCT
UniProt Q7Z7K6: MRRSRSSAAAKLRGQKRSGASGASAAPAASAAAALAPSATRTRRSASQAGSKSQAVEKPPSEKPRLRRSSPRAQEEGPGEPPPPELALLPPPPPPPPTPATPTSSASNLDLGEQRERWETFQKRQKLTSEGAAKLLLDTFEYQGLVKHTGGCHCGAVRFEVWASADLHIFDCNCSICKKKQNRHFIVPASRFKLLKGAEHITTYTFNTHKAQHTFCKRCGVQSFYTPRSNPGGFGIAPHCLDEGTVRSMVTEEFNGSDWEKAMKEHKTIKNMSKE
UniProt P63167: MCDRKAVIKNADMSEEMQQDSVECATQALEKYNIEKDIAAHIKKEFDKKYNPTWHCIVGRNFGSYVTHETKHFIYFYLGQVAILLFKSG
UniProt P49790: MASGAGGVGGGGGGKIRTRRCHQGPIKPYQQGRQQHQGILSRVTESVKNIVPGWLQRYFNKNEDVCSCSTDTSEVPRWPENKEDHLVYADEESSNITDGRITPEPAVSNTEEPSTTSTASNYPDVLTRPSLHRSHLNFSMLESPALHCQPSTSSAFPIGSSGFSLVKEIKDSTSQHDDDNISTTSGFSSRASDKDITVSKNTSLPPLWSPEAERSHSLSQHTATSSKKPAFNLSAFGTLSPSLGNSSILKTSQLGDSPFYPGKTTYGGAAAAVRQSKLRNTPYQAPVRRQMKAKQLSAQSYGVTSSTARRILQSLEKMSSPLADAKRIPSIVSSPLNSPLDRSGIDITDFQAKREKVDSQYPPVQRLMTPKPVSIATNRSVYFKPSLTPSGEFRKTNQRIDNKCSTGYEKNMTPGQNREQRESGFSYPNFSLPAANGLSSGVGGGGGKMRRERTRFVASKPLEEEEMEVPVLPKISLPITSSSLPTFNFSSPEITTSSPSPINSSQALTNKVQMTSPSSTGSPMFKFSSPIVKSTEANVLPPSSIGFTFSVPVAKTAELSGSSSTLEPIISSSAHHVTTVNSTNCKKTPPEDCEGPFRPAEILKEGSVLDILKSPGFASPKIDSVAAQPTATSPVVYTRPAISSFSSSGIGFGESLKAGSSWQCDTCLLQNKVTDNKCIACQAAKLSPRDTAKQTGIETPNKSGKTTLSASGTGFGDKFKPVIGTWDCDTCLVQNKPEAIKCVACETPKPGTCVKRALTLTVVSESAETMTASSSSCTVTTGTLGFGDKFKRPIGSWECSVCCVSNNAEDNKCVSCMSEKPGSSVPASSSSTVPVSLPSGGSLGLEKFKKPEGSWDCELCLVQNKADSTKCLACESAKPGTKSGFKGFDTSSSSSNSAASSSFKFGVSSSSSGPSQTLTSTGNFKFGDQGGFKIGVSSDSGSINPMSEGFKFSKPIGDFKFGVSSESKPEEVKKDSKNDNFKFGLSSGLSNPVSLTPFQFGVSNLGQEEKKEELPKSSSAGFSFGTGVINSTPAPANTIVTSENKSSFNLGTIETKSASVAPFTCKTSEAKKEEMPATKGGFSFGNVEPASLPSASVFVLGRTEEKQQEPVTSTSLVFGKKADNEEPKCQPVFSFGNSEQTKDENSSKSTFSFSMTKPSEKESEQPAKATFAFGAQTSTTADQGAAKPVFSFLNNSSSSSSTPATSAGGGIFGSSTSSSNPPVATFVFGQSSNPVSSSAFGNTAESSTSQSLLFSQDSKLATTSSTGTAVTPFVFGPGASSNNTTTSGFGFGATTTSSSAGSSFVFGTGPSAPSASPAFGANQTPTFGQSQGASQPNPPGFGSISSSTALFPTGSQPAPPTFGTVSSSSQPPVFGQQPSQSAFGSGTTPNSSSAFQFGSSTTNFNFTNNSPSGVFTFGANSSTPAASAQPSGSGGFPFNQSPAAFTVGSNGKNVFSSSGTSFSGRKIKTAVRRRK
UniProt P53350: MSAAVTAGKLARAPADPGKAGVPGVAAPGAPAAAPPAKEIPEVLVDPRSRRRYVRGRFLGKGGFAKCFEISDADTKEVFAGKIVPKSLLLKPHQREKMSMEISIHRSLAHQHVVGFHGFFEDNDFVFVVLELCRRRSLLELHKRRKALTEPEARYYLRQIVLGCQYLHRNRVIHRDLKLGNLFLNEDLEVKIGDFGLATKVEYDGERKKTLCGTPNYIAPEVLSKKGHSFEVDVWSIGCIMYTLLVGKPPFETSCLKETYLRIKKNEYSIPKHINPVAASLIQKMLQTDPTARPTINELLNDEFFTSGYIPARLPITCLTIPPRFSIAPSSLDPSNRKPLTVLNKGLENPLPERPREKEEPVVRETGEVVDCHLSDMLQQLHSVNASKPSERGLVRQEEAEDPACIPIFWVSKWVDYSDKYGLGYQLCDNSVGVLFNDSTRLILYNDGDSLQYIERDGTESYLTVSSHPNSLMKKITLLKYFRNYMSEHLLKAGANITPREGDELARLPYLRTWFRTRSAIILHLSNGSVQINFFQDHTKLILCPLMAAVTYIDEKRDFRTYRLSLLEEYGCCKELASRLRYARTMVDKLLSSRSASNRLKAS
UniProt P12270: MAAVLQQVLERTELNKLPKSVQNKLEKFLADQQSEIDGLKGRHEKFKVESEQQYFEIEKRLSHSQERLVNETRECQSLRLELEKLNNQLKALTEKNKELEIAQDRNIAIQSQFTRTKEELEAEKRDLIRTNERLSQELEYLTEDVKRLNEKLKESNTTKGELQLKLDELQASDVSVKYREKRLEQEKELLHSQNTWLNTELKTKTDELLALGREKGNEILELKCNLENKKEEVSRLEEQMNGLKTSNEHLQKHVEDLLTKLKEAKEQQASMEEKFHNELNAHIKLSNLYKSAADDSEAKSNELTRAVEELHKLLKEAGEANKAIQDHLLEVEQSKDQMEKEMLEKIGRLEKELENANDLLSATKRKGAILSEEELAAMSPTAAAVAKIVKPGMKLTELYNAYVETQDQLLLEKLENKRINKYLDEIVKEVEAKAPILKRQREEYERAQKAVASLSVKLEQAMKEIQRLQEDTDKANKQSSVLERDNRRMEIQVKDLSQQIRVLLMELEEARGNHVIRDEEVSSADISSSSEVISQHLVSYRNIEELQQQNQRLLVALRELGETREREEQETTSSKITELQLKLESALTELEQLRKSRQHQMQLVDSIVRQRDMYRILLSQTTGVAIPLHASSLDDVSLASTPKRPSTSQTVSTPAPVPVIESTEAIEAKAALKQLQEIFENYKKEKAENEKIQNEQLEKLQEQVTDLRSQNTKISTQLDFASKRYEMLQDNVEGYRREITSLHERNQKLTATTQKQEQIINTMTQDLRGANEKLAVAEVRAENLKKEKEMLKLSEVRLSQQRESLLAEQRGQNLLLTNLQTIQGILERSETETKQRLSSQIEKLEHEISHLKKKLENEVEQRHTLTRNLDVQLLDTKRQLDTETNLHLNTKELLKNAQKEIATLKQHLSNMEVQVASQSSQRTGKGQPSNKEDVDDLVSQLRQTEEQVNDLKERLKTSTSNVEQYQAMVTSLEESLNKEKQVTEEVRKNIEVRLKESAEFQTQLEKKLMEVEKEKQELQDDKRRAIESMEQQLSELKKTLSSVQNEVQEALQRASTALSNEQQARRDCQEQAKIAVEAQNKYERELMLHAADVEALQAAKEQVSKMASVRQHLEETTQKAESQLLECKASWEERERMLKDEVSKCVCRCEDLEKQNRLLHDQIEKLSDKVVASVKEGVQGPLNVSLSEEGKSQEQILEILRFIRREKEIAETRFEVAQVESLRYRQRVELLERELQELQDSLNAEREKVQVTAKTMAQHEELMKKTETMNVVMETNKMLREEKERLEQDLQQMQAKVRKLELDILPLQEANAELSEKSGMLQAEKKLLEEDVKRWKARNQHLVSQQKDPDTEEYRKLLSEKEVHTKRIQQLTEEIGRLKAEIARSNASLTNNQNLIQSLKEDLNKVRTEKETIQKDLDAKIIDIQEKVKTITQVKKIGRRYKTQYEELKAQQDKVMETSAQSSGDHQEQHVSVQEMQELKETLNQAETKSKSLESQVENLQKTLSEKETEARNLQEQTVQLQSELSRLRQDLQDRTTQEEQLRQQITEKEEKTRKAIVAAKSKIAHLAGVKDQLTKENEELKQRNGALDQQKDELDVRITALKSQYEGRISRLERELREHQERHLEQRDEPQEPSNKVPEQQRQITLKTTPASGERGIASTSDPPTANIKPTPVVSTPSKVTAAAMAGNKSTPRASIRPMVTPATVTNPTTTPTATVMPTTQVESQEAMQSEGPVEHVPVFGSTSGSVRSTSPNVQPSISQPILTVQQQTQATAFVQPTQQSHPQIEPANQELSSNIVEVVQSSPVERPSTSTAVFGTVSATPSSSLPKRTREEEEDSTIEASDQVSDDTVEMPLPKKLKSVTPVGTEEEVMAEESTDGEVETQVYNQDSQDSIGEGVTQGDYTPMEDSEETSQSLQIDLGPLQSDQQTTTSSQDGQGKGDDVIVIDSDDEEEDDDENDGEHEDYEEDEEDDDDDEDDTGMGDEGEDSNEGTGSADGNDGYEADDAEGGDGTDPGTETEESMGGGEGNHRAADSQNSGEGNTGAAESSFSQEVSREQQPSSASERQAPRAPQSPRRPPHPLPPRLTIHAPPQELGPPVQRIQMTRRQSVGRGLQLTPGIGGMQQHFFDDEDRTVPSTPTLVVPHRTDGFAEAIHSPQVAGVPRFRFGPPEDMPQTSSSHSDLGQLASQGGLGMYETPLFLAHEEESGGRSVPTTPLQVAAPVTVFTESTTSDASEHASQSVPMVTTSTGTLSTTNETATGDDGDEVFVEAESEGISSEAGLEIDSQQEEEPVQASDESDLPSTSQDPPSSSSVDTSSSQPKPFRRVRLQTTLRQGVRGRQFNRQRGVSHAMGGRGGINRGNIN

Read-outs that look alike come from different tables or passages of the source. No constants are given. Whether binding was seen depends on the method and setting. In cells and extracts the contact can be indirect. A yes stands for co-enrichment or nearness to the bait. Other partners may have been found. For some of these results: A no says only that the protein was not detected with the bait.

Common to all, as to test: proximity labelling
Assay [1] deals with BUBR1 (human) (UniProt O60566).
For assay [2], the target named is MAD2L1 (human) (UniProt Q13257).
In assay [3] the target is BUB1 (human) (UniProt O43683).
For assay [4], the target named is BUB3 (human) (UniProt O43684).
Assay [5] deals with T1, MAD1L1 (human) (UniProt Q9Y6D9).
T1 sequence: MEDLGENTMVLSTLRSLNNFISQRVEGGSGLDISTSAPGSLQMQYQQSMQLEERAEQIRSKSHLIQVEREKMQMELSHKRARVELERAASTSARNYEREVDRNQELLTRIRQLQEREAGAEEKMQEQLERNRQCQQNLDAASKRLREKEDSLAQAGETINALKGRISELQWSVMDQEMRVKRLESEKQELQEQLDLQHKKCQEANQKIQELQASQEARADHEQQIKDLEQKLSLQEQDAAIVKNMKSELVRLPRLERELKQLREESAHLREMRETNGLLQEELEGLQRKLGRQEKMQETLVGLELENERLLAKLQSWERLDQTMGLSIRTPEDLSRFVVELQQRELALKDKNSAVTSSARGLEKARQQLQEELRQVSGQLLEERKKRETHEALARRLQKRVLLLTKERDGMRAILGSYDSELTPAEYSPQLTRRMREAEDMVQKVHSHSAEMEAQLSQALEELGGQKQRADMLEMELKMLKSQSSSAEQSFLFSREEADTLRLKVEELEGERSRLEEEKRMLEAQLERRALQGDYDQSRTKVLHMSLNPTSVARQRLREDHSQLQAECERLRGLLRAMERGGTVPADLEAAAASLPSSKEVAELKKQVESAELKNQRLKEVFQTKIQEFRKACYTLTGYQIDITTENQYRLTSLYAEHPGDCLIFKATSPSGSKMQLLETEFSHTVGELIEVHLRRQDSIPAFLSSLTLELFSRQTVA

Assay [6] addresses BUB1 (human) (UniProt O43683). The source holds these as a separate data set.
The target in assay [7] is BUB3 (human) (UniProt O43684). The source holds these as a separate data set.
Assay [8] addresses BUBR1 (human) (UniProt O60566). This is another data set of the same source.
Assay [9] has as its target T1, MAD1L1 (human). This is another data set of the same source.
The target in assay [10] is MAD2L1 (human) (UniProt Q13257). The source holds these as a separate data set.

For BUB3 (from UniProt O43684 1-328), the binding result in assay [1] is “binds”.
As to CENPV (from UniProt Q7Z7K6 1-275), the binding entry in [2] was “binds”.
With DYNLL1 (from UniProt P63167 1-89), the binding entry in [3], in assay [4], in assay [1], in [5] and in assay [2] was “binds” in each case.
For “ELYS/AHCTF1 (from UniProt Q8WYP5 1-2266)”, the binding result in assay [3], in assay [4], in assay [1], in assay [5] and in [2] was “binds” throughout.
Turning to KNL1 (from UniProt Q8NG31 1-2342), the binding result in assay [4] was “binds”; in assay [1], “binds”; in assay [5], “binds”; in assay [2], “no binding”.
With NUP153 (from UniProt P49790 1-1475), the binding entry in [3] was “no binding”; in assay [4], “no binding”; in [1] it was “no binding”; in [5] it was “binds”; in [2], “binds”.
NUP210 (from UniProt Q8TEM1 27-1887): the binding result in [2] is “binds”.
Regarding PLK1 (from UniProt P53350 1-603), the binding entry in assay [4], in [1], in [5] and in assay [2] was “binds” in each case.
TPR (from UniProt P12270 1-2363): the binding result in assay [3], in assay [4] and in [1] was “no binding” in each case.

B1: SGO2 (protein, UniProt Q562F6 1-1265)
chain: MECPVMETGSLFTSGIKRHLKDKRISKTTKLNVSLASKIKTKILNNSSIFKISLKHNNRALAQALSREKENSRRITTEKMLLQKEVEKLNFENTFLRLKLNNLNKKLIDIEALMNNNLITAIEMSSLSEFHQSSFLLSASKKKRISKQCKLMRLPFARVPLTSNDDEDEDKEKMQCDNNIKSKTLPDIPSSGSTTQPLSTQDNSEVLFLKENNQNVYGLDDSEHISSIVDVPPRESHSHSDQSSKTSLMSEMRNAQSIGRRWEKPSPSNVTERKKRGSSWESNNLSADTPCATVLDKQHISSPELNCNNEINGHTNETNTEMQRNKQDLPGLSSESAREPNAECMNQIEDNDDFQLQKTVYDADMDLTASEVSKIVTVSTGIKKKSNKKTNEHGMKTFRKVKDSSSEKKRERSKRQFKNSSDVDIGEKIENRTERSDVLDGKRGAEDPGFIFNNEQLAQMNEQLAQVNELKKMTLQTGFEQGDRENVLCNKKEKRITNEQEETYSLSQSSGKFHQESKFDKGQNSLTCNKSKASRQTFVIHKLEKDNLLPNQKDKVTIYENLDVTNEFHTANLSTKDNGNLCDYGTHNILDLKKYVTDIQPSEQNESNINKLRKKVNRKTEIISGMNHMYEDNDKDVVHGLKKGNFFFKTQEDKEPISENIEVSKELQIPALSTRDNENQCDYRTQNVLGLQKQITNMYPVQQNESKVNKKLRQKVNRKTEIISEVNHLDNDKSIEYTVKSHSLFLTQKDKEIIPGNLEDPSEFETPALSTKDSGNLYDSEIQNVLGVKHGHDMQPACQNDSKIGKKPRLNVCQKSEIIPETNQIYENDNKGVHDLEKDNFFSLTPKDKETISENLQVTNEFQTVDLLIKDNGNLCDYDTQNILELKKYVTDRKSAEQNESKINKLRNKVNWKTEIISEMNQIYEDNDKDAHVQESYTKDLDFKVNKSKQKLECQDIINKHYMEVNSNEKESCDQILDSYKVVKKRKKESSCKAKNILTKAKNKLASQLTESSQTSISLESDLKHITSEADSDPGNPVELCKTQKQSTTTLNKKDLPFVEEIKEGECQVKKVNKMTSKSKKRKTSIDPSPESHEVMERILDSVQGKSTVSEQADKENNLENEKMVKNKPDFYTKAFRSLSEIHSPNIQDSSFDSVREGLVPLSVSSGKNVIIKENFALECSPAFQVSDDEHEKMNKMKFKVNRRTQKSGIGDRPLQDLSNTSFVSNNTAESENKSEDLSSERTSRRRRCTPFYFKEPSLRDKMRR
As to B1, the binding result in assay [6], in [7], in [8], in [9] and in assay [10] was “binds” each time.

B2: NUP50 (protein, UniProt Q9UKX7 1-468)
chain: MAKRNAEKELTDRNWDQEDEAEEVGTFSMASEEVLKNRAIKKAKRRNVGFESDTGGAFKGFKGLVVPSGGGRFSGFGSGAGGKPLEGLSNGNNITSAPPFASAKAAADPKVAFGSLAANGPTTLVDKVSNPKTNGDSQQPSSSGLASSKACVGNAYHKQLAALNCSVRDWIVKHVNTNPLCDLTPIFKDYEKYLANIEQQHGNSGRNSESESNKVAAETQSPSLFGSTKLQQESTFLFHGNKTEDTPDKKMEVASEKKTDPSSLGATSASFNFGKKVDSSVLGSLSSVPLTGFSFSPGNSSLFGKDTTQSKPVSSPFPTKPLEGQAEGDSGECKGGDEEENDEPPKVVVTEVKEEDAFYSKKCKLFYKKDNEFKEKGIGTLHLKPTANQKTQLLVRADTNLGNILLNVLIPPNMPCTRTGKNNVLIVCVPNPPIDEKNATMPVTMLIRVKTSEDADELHKILLEKKDA
As for B2, the binding result in [6] is reported as “no binding”; in [7] it was “no binding”; in assay [8], “no binding”; in assay [9], “binds”; in assay [10], “binds”.

B3: PMF1 (protein, UniProt Q6P1K2 1-205)
chain: MAEASSANLGSGCEEKRHEGSSSESVPPGTTISRVKLLDTMVDTFLQKLVAAGSYQRFTDCYKCFYQLQPAMTQQIYDKFIAQLQTSIREEISDIKEEGNLEAVLNALDKIVEEGKVRKEPAWRPSGIPEKDLHSVMAPYFLQQRDTLRRHVQKQEAENQQLADAVLAGRRQVEELQLQVQAQQQAWQALHREQRELVAVLREPE
Consider B3, for which the binding result in assay [6] and in assay [9] was “binds” throughout.

B4: DSN1 (protein, UniProt Q9H410 1-356)
chain: MTSVTRSEIIDEKGPVMSKTHDHQLESSLSPVEVFAKTSASLEMNQGVSEERIHLGSSPKKGGNCDLSHQERLQSKSLHLSPQEQSASYQDRRQSWRRASMKETNRRKSLHPIHQGITELSRSISVDLAESKRLGCLLLSSFQFSIQKLEPFLRDTKGFSLESFRAKASSLSEELKHFADGLETDGTLQKCFEDSNGKASDFSLEASVAEMKEYITKFSLERQTWDQLLLHYQQEAKEILSRGSTEAKITEVKVEPMTYLGSSQNEVLNTKPDYQKILQNQSKVFDCMELVMDELQGSVKQLQAFMDESTQCFQKVSVQLGKRSMQQLDPSPARKLLKLQLQNPPAIHGSGSGSCQ
With B4, the binding result in [6] and in assay [9] was “binds” in each case.
